{"source": "PubChem BioAssay AID504467", "about": "(National Center for Advancing Translational Sciences (NCATS), 2011)", "note": "Hit rate of the full screen: of about 330,000 compounds, about 7,700 (2.3%) were called active. This list was built around the results that the source calls inconclusive (neither active nor inactive); the mix of calls is not that of the screen. Calls follow the shape of the dose curve; as a rule, active = well fitted inhibition curve with a large enough effect; inconclusive = small, poorly fitted or top-dose-only effect, or effect the other way; inactive = flat fitted curve, though single readings scatter. A potency beside an inconclusive call is a rough fit, not a confirmed value.", "data": [{"experiment": "qHTS screen for small molecules that inhibit ELG1-dependent DNA repair in human embryonic kidney (HEK293T) cells expressing luciferase-tagged ELG1; also: nearly all actives have a fitted effect of over 55% in size; also: potency is read from the fitted curve at half-maximal effect", "conditions": "HEK293T ELG1-luciferase reporter, luminescence, 16 h, DNA damage induced by 5-fluorouridine; series mostly up to 46.1 µM", "method_in_brief": "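Quantitative HTS, concentration-response format. 2,000 cells/well co-treated with 5-fluorouridine and compound, 16 hr in 5% CO2 at 37 °C; ONE-Glo luminescence read after 30 min.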", "values": [{"compound": "O=C(/C=C/c1cccs1)N1CCC2(CC1)Oc1ccc(F)cc1C(=O)C21CC(c2ccccc2)=NO1", "note": "(stereo not given)", "Potency": "inconclusive: 0.58 µM [inhibitor, single point]"}, {"compound": "COc1ccc(-c2cc(C(F)(F)F)nc(S(C)(=O)=O)n2)cc1OC", "Potency": "active: 20.6 µM"}, {"compound": "COC(=O)Nc1nc(Sc2ncc(C(F)(F)F)cc2Cl)n[nH]1", "Potency": "inactive"}, {"compound": "COc1cccc(CNc2ncnc3cc(Cl)ccc23)c1", "Potency": "inconclusive: 6.51 µM [inhibitor, full curve, poor fit]"}, {"compound": "Cc1sc(NC(=O)CSC2=NCCS2)nc1-c1ccccc1", "Potency": "inconclusive: 23.1 µM [inhibitor, partial curve]"}, {"compound": "O=C1Nc2ccc(S(=O)(=O)N3CCCC3)c3cccc1c23", "Potency": "inconclusive: 16.4 µM [activator, partial curve]"}, {"compound": "CCC(=O)Nc1ccc(C(=O)N/N=C/c2cc(Br)c(OC)cc2OC)cc1", "Potency": "inconclusive: 18.4 µM [inhibitor, single point]"}, {"compound": "CC(=O)OC[C@H]1O[C@@H](O/N=C/[C@@H](C)[C@H](OCc2ccccc2)C(C)C)[C@H](OC(C)=O)[C@@H](OC(C)=O)[C@@H]1OC(C)=O", "Potency": "inconclusive: 32.6 µM [inhibitor, single point]"}, {"compound": "CN(C)CCn1c2c(c(SCC(=O)Nc3cccc4ccccc34)nc1=O)CCC2", "Potency": "inactive"}, {"compound": "CCCNC(=O)Nc1cccc(C(=O)OC)c1", "Potency": "inconclusive: 29.1 µM [activator, single point]"}, {"compound": "Cc1onc(-c2ccccc2)c1C(=O)N1CCN(c2ccccn2)CC1", "Potency": "inactive"}, {"compound": "COc1ccc(CN(CC(=O)NCc2ccco2)C(=O)CCC(=O)Nc2nccs2)cc1", "Potency": "inactive"}, {"compound": "Cc1cc(=O)[nH]c(SCC(=O)NC2CCCc3ccccc32)n1", "note": "(stereo not given)", "Potency": "inactive"}, {"compound": "O=C(NCC1CCCCC1)C12CN(Cc3ccccc3)CC1C(c1cccc([N+](=O)[O-])c1)=NO2", "note": "(stereo not given)", "Potency": "inconclusive: 29.1 µM [inhibitor, single point]"}, {"compound": "Cc1c(Cl)cccc1NC(=O)N1CCN(C(=O)c2ccco2)CC1", "Potency": "inactive"}, {"compound": "Cc1ccccc1/[N+]([O-])=C/c1ccncc1", "Potency": "inconclusive: 23.1 µM [activator, single point]"}, {"compound": "Cc1c(O)ccc(-c2n[nH]c(C(=O)O)c2-c2nc3ccccc3s2)c1O", "Potency": "inconclusive: 8.2 µM [activator, partial curve, poor fit]"}, {"compound": "COc1ccccc1-c1ccc(SCC(=O)NC2CCCCC2)nn1", "Potency": "inconclusive: 23.1 µM [inhibitor, single point]"}, {"compound": "COC(=O)c1cccc(NC(=O)CCc2cc(OC)c(OC)c(OC)c2)c1", "Potency": "inconclusive: 20.6 µM [inhibitor, single point]"}, {"compound": "CCN(CC)c1ccc(C(=O)Nc2cccc(F)c2)cc1", "Potency": "inconclusive: 0.731 µM [activator, single point]"}, {"compound": "CCCCOc1ccc(OCCNC(=O)C2CCCN2C(=O)Nc2ccccc2)cc1", "note": "(stereo not given)", "Potency": "inconclusive: 29.1 µM [inhibitor, single point]"}, {"compound": "Cc1cnc(-c2nnc(N(C)C(=O)c3ccccn3)s2)cn1", "Potency": "inconclusive: 14.6 µM [activator, single point]"}, {"compound": "COc1ccccc1NC(=O)Cc1nnc(SCC(=O)NC2CCCCC2)n1C", "Potency": "inconclusive: 4.11 µM [activator, single point]"}, {"compound": "CNNC(=S)NCCC1=CCCCC1", "Potency": "inactive"}, {"compound": "CCCC1=C(C(=O)OCC)C(c2ccccc2OCC)NC(=O)N1C", "note": "(stereo not given)", "Potency": "inconclusive: 32.6 µM [inhibitor, partial curve, poor fit]"}, {"compound": "O=C(NCc1cccs1)C1CCN(S(=O)(=O)c2ccc(Cl)cc2)CC1", "Potency": "inactive"}, {"compound": "Cc1ccc(C)c(N/C(N)=N/c2nc(C)cc(C)n2)c1", "Potency": "inactive"}, {"compound": "Cn1c2ccccc2c(=O)c2cc(C#CC3=CCCCC3)ccc21", "Potency": "inconclusive: 2.91 µM [activator, partial curve]"}, {"compound": "COc1cccc(-n2cc(CN(C)Cc3nc(Cc4cccc(F)c4)no3)cn2)c1", "Potency": "inconclusive: 23.1 µM [inhibitor, single point]"}, {"compound": "COc1cccc(COc2ccc3ccc(=O)oc3c2)c1", "Potency": "inconclusive: 16.4 µM [activator, partial curve]"}, {"compound": "COc1ccc(C)cc1NC(=O)COC(=O)c1c(C)nn(-c2ccccc2)c1C", "Potency": "inconclusive: 16.4 µM [inhibitor, single point]"}, {"compound": "COc1cccc(/C=N/NC(=O)CNC(=O)c2ccc3c(c2)OCCO3)c1O", "Potency": "inconclusive: 13 µM [inhibitor, partial curve, poor fit]"}, {"compound": "N#C/C(=C/c1cn(CC(=O)O)c2ccccc12)C(=O)Nc1ccccc1", "Potency": "inactive"}, {"compound": "Cc1ccc(CCC(=O)Nc2ncc(Cc3cccc(Cl)c3Cl)s2)o1", "Potency": "inactive"}, {"compound": "COC(=O)C1=NNC2(c3ccc(C)cc3)C(=O)N(c3ccc(C)cc3)C(=O)C12", "note": "(stereo not given)", "Potency": "inconclusive: 9.2 µM [inhibitor, partial curve, poor fit]"}, {"compound": "CCN(CC)Cc1c(O)c(Cl)cc2c(C)c(C)c(=O)oc12", "Potency": "inactive"}, {"compound": "CC(C)c1cccc(C2=CC(=O)C[C@H](c3ccc4c(c3)OCO4)C2)c1", "Potency": "inactive"}, {"compound": "Cc1c(C)n(CCc2ccccc2)c2ncnc(NCCCN(C)C)c12", "Potency": "inconclusive: 32.6 µM [activator, single point]"}, {"compound": "Cc1ccc(N=Nc2[nH]c3ccccc3c2O)cc1", "Potency": "inconclusive: 20.6 µM [activator, partial curve, poor fit]"}, {"compound": "COc1ccc(-c2[nH]ncc2/C=C(/C#N)C(=O)NC2CCCCC2)cc1", "Potency": "inconclusive: 14.6 µM [inhibitor, partial curve]"}, {"compound": "O=C(NC(=S)Nc1cccc(F)c1)c1cccc([N+](=O)[O-])c1", "Potency": "inactive"}, {"compound": "Cc1cc(C(=O)CSc2nc3ccccc3n2CCC#N)c(C)n1Cc1cccs1", "Potency": "inactive"}, {"compound": "Cc1cc(C)nc(Nc2nc3ccccc3o2)n1", "Potency": "inconclusive: 20.6 µM [activator, partial curve]"}, {"compound": "COc1ccc(NC(=O)c2c(N)no[n+]2[O-])c(OC)c1", "Potency": "inconclusive: 0.231 µM [inhibitor, single point]"}, {"compound": "Cc1cc(OCC(=O)NNC(=S)NCC2CCCO2)cc(C)c1Cl", "note": "(stereo not given)", "Potency": "inconclusive: 20.6 µM [activator, partial curve, poor fit]"}]}]}
